Experimental data from US11213514B2, “Alpha-1-adrenergic receptor agonist therapy” (The Regents of the University of California, priority 2016, dated 2022).

Columns and labels:
[1] = test system: wild type (WT) mice; assay: Doxorubicin cardiotoxicity in wild type mice (survival, anatomy, conscious echocardiography, fibrosis); conditions: Day 0 (baseline) echocardiography
Source text: (§1) FIGS. 2A-2B. […] On Day 7 the mice underwent echocardiography prior to sacrifice. FIG. 2A. Fractional shortening, a measure of contractile function, with representative M-mode echocardiogram images. […] FIG. 2B. Heart sections from some of these mice (i.e. wild type mice) stained with Masson Trichrome. Fibrosis (weighted average collagen content) was quantified using Aperio ImageScope software.
(§2) On Day 7, mice underwent echocardiography and were sacrificed by cervical dislocation after an overdose of isoflurane.
(§3) Conscious transthoracic echocardiography was performed on loosely restrained mice in the McAllister Heart Institute Animal Models Core using a VisualSonics Vevo 2100 ultrasound system (VisualSonics, Inc., Toronto, Ontario, Canada). Two-dimensional and M-mode echocardiography were performed in the parasternal long-axis view at the level of the papillary muscle. Left ventricular systolic function was assessed by fractional shortening (% FS=[(LVEDD−LVESD)/LVEDD]×100). Reported values represent the average of at least five cardiac cycles per mouse. Sonographers and investigators were blinded to mouse treatment condition during image acquisition and analysis.
Mice were heparinized and the heart was perfused with 10 mL PBS followed by 20 mL of 4% PFA/PBS through a 23 G butterfly needle, excised and placed in 4% PFA/PBS for 24 hours then transferred to 70% EtOH. Hearts were stained using standard methods in the UNC Histology Research Core. Fibrosis was analyzed in 3 Masson Trichrome (MT)-stained sections of 4 or 5 hearts from each treatment group. Slides were scanned using an Aperio ScanScope (Aperio Technologies, Vista, Calif.) and analyzed in Aperio ImageScope software. The Algorithm Positive Pixel Count v9 was used to measure collagen staining by MT using hue value (0.66) and hue width (0.1) The N positive/N total value was used to determine a weighted average collagen content (%) for each section.

[2] = test system: mice lacking the α1A-AR (AKO); assay: Doxorubicin cardiotoxicity in mice lacking the α1A-AR (survival, anatomy, conscious echocardiography); conditions: α1A-KO mice, Day 0 (baseline) echocardiography
Source text: as §1
C57Bl6J mice were from Jackson Laboratory or from our breeding colony. α1A-AR knockout (AKO) mice from Paul C. Simpson were congenic on a C57Bl6J background for at least 10 generations and produced by heterozygous breeding in our animal facility. 8-12 week old males were used in all experiments. Female Sprague-Dawley rats with newborn litters were from Charles River. Animal care and experimental protocols were approved by the UNC IACUC and complied with Guide for the Care and the use of Laboratory Animals (National Research Council Committee for the Update of the Guide for the Care and Use of Laboratory Animals, 2011).
as §2, §3

SMILES | FS (Fractional Shortening) ([1]; Dox + vehicle group) | LVs vol (Left Ventricular systolic volume) ([1]; Dox + vehicle group) | PWd (Posterior Wall, diastole) ([1]; Dox + vehicle group) | FS (Fractional Shortening) ([2]; Dox + vehicle group) | HR (Heart Rate) ([2]; Dox + vehicle group) | FS (Fractional Shortening) ([1]; Dox + 1240 20 μg/kg/d group) | LVs vol (Left Ventricular systolic volume) ([1]; Dox + 1240 20 μg/kg/d group) | PWd (Posterior Wall, diastole) ([1]; Dox + 1240 20 μg/kg/d group) | FS (Fractional Shortening) ([2]; Dox + 1240 20 μg/kg/d group) | HR (Heart Rate) ([2]; Dox + 1240 20 μg/kg/d group)
COc1cccc2c1C(=O)c1c(O)c3c(c(O)c1C2=O)C[C@@](O)(C(=O)CO)C[C@@H]3O[C@H]1C[C@H](N)[C@H](O)[C@H](C)O1 [DOX, doxorubicin] | 54 ± 2% | 5 ± 1 mL | 0.8 ± 0^ cm | 55 ± 1% | 679 ± 38 beats per minute | – | – | – | – | –
Cc1c(OCC2=NCCN2)ccc(Cl)c1NS(C)(=O)=O [dabuzalgron, N-[6-chloro-3-(4,5-dihydro-1H-imidazol-2-ylmethoxy)-2-methylphenyl]methanesulfonamide] | – | – | – | – | – | 50 ± 3% | 5 ± 1 mL | 0.9 ± 0^ cm | 54 ± 1% | 703 ± 13 beats per minute
